In article PMC4774922:
Results are given in words; binding and its absence hold for the method and conditions named. Binding seen in cells or lysates may run through a third protein. Here binding means that the protein was enriched with, or labelled near, the bait; the list need not be complete. For part of these data: No binding means not detected with the bait. For part of these data: Tags and fused reporters may be left off the sequences shown.

By UniProt entry, the sequences of proteins in these tests, tags left out. Where a name states a change or a piece, a line headed by the entry shows the natural chain unless it says otherwise.
UniProt Q9HAU5: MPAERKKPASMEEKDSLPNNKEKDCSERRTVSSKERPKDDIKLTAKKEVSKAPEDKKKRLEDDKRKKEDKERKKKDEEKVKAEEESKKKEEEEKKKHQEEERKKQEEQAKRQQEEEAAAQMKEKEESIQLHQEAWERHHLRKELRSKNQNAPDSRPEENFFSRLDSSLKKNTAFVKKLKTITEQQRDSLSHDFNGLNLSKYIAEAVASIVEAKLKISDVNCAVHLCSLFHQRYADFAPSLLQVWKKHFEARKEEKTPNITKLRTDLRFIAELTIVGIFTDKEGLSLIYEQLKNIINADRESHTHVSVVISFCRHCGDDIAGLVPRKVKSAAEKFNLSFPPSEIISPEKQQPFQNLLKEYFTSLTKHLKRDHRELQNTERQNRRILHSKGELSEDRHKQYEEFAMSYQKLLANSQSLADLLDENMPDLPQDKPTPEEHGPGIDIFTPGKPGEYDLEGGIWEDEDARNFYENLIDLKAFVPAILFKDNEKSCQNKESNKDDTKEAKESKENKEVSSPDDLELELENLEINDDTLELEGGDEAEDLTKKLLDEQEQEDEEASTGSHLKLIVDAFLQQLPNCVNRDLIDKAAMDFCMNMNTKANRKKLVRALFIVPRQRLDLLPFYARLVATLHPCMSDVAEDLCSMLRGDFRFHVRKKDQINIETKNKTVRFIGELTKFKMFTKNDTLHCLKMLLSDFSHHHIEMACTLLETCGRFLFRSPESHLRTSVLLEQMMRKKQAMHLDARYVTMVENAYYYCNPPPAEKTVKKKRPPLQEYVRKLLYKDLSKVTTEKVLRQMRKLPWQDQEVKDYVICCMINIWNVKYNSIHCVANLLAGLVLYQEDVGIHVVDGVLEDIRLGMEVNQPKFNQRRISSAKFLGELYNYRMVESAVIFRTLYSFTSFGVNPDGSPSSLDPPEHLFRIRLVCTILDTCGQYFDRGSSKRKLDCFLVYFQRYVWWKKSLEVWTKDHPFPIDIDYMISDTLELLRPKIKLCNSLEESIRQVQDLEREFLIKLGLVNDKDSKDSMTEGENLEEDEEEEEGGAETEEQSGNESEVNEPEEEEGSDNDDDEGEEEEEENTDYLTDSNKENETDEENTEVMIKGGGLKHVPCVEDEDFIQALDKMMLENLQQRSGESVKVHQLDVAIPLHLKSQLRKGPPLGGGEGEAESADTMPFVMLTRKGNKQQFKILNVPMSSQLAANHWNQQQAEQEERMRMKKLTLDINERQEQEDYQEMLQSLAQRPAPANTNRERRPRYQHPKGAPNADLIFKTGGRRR
UniProt P46109: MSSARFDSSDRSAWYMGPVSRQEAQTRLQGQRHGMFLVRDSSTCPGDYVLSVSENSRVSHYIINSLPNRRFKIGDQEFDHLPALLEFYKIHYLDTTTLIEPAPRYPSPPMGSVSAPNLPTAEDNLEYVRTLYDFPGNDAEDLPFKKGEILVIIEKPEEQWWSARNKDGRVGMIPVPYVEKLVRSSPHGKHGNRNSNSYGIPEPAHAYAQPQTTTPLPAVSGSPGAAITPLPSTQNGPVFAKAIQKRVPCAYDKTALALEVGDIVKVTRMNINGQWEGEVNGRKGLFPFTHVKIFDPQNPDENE
UniProt Q8IZH2: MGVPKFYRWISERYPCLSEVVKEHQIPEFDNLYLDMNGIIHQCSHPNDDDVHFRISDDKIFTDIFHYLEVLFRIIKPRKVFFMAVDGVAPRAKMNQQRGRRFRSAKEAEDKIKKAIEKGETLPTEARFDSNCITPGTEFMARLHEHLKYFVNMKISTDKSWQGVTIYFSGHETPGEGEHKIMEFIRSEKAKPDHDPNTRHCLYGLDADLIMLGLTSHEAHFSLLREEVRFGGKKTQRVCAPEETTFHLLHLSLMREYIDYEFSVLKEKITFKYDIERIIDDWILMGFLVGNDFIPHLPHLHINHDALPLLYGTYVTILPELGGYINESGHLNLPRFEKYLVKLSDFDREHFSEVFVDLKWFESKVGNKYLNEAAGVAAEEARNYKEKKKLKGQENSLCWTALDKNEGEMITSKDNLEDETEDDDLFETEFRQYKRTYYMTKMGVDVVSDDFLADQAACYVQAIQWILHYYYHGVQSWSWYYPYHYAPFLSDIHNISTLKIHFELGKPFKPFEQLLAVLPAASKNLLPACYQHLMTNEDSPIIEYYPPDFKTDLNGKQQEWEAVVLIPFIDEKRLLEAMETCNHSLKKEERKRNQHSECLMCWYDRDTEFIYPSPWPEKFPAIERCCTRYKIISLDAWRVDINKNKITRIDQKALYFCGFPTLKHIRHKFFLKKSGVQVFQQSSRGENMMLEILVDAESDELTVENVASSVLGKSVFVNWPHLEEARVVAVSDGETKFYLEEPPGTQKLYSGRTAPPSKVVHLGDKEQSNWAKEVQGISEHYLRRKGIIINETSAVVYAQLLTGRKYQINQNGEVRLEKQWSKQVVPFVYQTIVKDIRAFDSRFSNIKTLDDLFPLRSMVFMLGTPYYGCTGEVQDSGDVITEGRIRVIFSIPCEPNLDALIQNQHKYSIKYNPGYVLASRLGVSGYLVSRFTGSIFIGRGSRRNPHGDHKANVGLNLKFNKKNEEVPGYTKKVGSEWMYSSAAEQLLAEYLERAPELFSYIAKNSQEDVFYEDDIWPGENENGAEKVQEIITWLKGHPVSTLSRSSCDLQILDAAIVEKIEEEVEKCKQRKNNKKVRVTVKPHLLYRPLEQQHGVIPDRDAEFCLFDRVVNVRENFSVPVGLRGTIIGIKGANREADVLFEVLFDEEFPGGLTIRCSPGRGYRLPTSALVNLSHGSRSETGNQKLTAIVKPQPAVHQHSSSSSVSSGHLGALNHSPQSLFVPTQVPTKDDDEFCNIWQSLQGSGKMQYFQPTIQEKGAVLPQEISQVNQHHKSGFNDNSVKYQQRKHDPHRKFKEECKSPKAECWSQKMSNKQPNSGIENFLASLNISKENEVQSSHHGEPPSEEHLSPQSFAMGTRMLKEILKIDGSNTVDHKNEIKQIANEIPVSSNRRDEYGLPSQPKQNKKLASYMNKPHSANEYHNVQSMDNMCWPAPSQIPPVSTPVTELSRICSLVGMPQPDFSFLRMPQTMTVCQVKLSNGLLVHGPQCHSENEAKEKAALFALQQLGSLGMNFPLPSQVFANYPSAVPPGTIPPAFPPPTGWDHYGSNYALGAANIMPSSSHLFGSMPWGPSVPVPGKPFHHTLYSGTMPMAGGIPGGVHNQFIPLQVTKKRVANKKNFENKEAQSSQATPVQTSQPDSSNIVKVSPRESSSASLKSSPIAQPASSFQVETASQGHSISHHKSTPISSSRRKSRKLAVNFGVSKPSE
UniProt P61326: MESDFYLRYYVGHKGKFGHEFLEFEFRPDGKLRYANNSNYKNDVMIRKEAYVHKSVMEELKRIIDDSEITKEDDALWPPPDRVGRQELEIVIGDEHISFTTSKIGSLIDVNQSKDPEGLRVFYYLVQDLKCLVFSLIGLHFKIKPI
UniProt O00571: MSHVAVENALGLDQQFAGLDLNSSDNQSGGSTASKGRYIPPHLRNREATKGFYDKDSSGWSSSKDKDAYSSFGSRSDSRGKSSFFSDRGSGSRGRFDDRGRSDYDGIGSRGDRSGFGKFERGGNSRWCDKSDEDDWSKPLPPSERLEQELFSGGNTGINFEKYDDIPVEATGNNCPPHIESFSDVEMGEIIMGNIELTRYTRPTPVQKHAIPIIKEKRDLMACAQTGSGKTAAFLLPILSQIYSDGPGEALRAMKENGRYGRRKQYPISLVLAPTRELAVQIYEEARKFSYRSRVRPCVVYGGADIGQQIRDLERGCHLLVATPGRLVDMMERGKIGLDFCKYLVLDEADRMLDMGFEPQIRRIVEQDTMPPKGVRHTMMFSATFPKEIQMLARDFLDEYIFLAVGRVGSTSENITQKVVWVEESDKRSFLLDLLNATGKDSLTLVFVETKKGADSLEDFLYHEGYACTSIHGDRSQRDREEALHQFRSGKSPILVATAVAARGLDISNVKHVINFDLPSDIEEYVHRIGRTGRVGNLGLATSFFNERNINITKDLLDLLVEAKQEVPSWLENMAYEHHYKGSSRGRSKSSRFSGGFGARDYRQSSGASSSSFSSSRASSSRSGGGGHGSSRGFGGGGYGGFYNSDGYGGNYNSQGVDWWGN
UniProt P25685: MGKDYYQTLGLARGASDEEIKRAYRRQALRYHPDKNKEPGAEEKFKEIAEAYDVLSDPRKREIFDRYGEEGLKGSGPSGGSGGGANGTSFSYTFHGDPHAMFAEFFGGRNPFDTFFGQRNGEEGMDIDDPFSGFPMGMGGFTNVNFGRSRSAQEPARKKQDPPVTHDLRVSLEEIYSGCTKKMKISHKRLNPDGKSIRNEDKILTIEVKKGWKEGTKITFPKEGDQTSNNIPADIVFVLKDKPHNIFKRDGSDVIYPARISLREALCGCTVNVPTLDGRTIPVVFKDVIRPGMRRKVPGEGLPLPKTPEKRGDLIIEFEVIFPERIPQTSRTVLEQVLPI
UniProt P78344: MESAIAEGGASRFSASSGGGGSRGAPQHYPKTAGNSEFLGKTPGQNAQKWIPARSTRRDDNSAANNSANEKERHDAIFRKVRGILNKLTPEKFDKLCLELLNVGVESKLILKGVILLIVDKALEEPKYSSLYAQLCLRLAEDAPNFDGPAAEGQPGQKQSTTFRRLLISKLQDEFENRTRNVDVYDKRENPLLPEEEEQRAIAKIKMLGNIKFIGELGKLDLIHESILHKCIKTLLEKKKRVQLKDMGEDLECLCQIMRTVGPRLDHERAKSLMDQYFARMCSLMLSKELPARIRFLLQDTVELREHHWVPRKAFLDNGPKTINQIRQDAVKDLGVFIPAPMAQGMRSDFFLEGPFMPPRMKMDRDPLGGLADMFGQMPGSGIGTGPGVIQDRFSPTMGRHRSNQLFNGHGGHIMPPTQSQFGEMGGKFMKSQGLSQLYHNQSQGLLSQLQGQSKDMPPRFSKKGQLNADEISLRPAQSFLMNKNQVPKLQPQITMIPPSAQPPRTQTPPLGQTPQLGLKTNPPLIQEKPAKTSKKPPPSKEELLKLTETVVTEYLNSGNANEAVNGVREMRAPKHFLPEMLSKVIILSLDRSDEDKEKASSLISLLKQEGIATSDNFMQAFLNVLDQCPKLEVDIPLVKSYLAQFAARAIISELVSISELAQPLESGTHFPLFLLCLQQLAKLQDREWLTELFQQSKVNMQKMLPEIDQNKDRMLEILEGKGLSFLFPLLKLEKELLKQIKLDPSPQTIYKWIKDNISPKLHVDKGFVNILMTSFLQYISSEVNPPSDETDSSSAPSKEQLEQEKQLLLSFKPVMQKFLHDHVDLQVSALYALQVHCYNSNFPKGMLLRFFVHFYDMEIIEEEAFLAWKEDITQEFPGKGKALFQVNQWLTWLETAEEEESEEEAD
UniProt P38919: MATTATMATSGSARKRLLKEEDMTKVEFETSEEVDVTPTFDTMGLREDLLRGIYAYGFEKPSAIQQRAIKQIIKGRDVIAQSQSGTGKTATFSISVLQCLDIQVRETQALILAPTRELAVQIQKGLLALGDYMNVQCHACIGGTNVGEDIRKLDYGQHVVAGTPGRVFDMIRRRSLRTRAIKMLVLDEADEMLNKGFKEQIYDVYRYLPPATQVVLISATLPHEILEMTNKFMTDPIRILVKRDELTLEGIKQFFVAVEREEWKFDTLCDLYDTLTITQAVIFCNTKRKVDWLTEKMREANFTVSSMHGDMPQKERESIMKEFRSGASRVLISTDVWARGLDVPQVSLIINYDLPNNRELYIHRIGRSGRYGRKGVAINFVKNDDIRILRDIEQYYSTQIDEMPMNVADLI
UniProt P46108: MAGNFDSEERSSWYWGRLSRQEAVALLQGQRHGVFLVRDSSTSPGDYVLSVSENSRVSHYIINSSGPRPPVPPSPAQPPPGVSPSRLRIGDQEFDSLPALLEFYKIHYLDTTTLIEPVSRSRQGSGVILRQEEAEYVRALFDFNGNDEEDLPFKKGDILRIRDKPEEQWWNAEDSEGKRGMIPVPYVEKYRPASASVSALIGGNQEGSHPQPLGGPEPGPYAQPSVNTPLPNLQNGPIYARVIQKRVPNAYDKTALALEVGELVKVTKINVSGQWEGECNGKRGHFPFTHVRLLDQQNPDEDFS

Legend:
[1] = target: HA-BirA(R118G)-tagged UPF2, RNAi-resistant (UniProt Q9HAU5); assay: proximity labelling; BioID: HB*-bait transiently expressed in 293T cells, 50 μM biotin for 16 hours; streptavidin capture; LC-MS/MS; kept: at least two exclusive unique peptides and more than two times the normalized spectrum count of the free HB* control
[2] = target: T1, HA-BirA(R118G)-tagged SMG5, RNAi-resistant (UniProt Q9UPR3); assay: as above
T1 sequence: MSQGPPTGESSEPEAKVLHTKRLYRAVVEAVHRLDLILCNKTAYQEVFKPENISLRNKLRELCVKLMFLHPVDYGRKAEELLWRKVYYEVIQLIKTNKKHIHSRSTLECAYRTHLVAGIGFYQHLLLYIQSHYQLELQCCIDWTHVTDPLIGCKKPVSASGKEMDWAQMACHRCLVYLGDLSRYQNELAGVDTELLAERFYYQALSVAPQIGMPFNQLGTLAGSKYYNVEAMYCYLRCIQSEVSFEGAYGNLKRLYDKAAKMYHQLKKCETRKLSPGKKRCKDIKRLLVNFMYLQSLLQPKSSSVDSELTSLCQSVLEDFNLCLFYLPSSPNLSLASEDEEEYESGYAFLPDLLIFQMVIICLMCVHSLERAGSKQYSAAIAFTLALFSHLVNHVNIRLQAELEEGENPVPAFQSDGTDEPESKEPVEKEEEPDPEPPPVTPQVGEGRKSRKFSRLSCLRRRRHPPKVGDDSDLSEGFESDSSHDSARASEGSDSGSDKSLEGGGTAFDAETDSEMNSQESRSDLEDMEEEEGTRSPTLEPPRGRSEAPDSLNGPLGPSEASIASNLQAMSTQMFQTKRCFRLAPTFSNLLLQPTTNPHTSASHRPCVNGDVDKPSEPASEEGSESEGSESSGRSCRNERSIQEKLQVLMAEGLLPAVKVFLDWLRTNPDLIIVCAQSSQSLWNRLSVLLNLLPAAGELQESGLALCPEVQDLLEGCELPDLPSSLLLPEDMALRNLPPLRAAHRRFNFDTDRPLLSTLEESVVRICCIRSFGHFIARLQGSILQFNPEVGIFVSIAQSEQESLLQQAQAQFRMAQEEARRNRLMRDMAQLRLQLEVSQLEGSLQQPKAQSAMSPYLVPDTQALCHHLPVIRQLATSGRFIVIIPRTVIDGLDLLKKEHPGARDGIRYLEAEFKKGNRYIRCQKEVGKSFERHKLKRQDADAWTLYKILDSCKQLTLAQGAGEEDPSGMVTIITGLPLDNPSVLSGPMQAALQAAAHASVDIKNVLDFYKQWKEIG

[3] = target: T2, HA-BirA(R118G)-tagged UPF1, RNAi-resistant (UniProt Q92900); assay: as above
T2 sequence: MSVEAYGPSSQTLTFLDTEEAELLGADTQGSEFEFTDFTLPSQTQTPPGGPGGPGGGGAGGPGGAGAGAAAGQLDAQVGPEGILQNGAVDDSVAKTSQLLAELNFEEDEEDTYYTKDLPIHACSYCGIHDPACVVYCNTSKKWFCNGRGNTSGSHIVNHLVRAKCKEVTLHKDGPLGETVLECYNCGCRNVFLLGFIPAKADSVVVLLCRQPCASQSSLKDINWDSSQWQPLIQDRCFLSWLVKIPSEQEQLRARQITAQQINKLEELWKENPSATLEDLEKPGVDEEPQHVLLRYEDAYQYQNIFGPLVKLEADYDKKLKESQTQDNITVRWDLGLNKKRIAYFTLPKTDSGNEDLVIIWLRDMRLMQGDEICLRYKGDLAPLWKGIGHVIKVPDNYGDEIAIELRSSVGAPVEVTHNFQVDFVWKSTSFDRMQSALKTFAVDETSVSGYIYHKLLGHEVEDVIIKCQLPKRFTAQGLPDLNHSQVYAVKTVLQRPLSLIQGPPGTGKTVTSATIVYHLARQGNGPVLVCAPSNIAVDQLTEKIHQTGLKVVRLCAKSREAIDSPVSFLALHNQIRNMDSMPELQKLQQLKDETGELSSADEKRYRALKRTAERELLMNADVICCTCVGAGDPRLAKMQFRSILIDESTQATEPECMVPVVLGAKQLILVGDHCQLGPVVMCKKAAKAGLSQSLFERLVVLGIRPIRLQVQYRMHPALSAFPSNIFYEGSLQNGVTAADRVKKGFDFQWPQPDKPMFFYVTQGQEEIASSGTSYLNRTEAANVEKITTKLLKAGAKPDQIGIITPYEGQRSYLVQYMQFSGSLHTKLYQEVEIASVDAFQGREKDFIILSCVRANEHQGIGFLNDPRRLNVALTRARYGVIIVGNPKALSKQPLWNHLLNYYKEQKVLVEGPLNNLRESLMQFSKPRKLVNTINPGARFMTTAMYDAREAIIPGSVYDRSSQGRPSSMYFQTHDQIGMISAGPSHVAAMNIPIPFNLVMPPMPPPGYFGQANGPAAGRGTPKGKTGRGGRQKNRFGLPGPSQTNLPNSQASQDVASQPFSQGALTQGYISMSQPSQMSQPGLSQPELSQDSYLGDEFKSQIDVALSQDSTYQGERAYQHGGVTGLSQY

[4] = target: T1, HA-BirA(R118G)-tagged SMG5, RNAi-resistant; assay: co-IP + proximity labelling; tandem purification: HB*-bait in 293T cells, 50 μM biotin for six hours; anti-HA magnetic beads, then streptavidin capture of the biotinylated proteins in the precipitate; LC-MS/MS
[5] = target: T2, HA-BirA(R118G)-tagged UPF1, RNAi-resistant; assay: as above
[6] = target: HA-BirA(R118G)-tagged UPF2, RNAi-resistant (UniProt Q9HAU5); assay: as above
[7] = target: T2, HA-BirA(R118G)-tagged UPF1, RNAi-resistant; assay: proximity labelling; BioID: HB*-bait transiently expressed in 293T cells at near endogenous levels, 50 μM biotin for 16 hours; biotinylated proteins captured on magnetic streptavidin beads; western blot
[8] = target: HA-BirA(R118G)-tagged UPF2, RNAi-resistant (UniProt Q9HAU5); assay: proximity labelling; BioID: HB*-bait transiently expressed in 293T cells, 50 μM biotin for 16 hours; streptavidin capture; LC-MS/MS; kept: at least two exclusive unique peptides and more than two times the normalized spectrum count of the free HB* control; remark: listed apart in the source
[9] = target: HA-BirA(R118G)-tagged UPF2, RNAi-resistant (UniProt Q9HAU5); assay: proximity labelling; BioID: HB*-bait transiently expressed in 293T cells at near endogenous levels, 50 μM biotin for 16 hours; biotinylated proteins captured on magnetic streptavidin beads; western blot

With CRKL (from UniProt P46109 1-303) the binding [1] was “binds”.

For XRN1 (from UniProt Q8IZH2 1-1706), the binding [2] was “binds”, the binding [3] was “binds” and the binding [1] was “binds weakly”.

For MAGOH (from UniProt P61326 1-146), the binding [4] was “no binding”.

DDX3X (from UniProt O00571 1-662) was tested, and the binding [4] was “binds”, the binding [5] was “binds” and the binding [6] was “binds”.

UPF2 (from UniProt Q9HAU5 1-1272) was tested, and the binding [3] was “binds” and the binding [7] was “binds”.

With CASC3 (from UniProt O15234 1-703) the binding [4] was “no binding”.

With DNAJB1 (from UniProt P25685 1-340) the binding [2] was “binds”, the binding [3] was “binds” and the binding [1] was “binds”.

EIF4G2 (from UniProt P78344 1-907) was tested, and the binding [2] was “binds”, the binding [3] was “binds” and the binding [1] was “binds”.

In the case of EIF4A3 (from UniProt P38919 1-411), the binding [4] is reported as “no binding”.

In the case of SMG1 (from UniProt Q96Q15 1-3661), the binding [3] is reported as “binds” and the binding [7] is reported as “binds weakly”.

For CRK (from UniProt P46108 1-304), the binding [2] was “binds”, the binding [3] was “binds” and the binding [1] was “binds”.

NBAS (from UniProt A2RRP1 1-2371) was tested, and the binding [1] was “no binding”.

B1: UPF1 (protein, UniProt Q92900 1-1129)
chain: MSVEAYGPSSQTLTFLDTEEAELLGADTQGSEFEFTDFTLPSQTQTPPGGPGGPGGGGAGGPGGAGAGAAAGQLDAQVGPEGILQNGAVDDSVAKTSQLLAELNFEEDEEDTYYTKDLPIHACSYCGIHDPACVVYCNTSKKWFCNGRGNTSGSHIVNHLVRAKCKEVTLHKDGPLGETVLECYNCGCRNVFLLGFIPAKADSVVVLLCRQPCASQSSLKDINWDSSQWQPLIQDRCFLSWLVKIPSEQEQLRARQITAQQINKLEELWKENPSATLEDLEKPGVDEEPQHVLLRYEDAYQYQNIFGPLVKLEADYDKKLKESQTQDNITVRWDLGLNKKRIAYFTLPKTDSGNEDLVIIWLRDMRLMQGDEICLRYKGDLAPLWKGIGHVIKVPDNYGDEIAIELRSSVGAPVEVTHNFQVDFVWKSTSFDRMQSALKTFAVDETSVSGYIYHKLLGHEVEDVIIKCQLPKRFTAQGLPDLNHSQVYAVKTVLQRPLSLIQGPPGTGKTVTSATIVYHLARQGNGPVLVCAPSNIAVDQLTEKIHQTGLKVVRLCAKSREAIDSPVSFLALHNQIRNMDSMPELQKLQQLKDETGELSSADEKRYRALKRTAERELLMNADVICCTCVGAGDPRLAKMQFRSILIDESTQATEPECMVPVVLGAKQLILVGDHCQLGPVVMCKKAAKAGLSQSLFERLVVLGIRPIRLQVQYRMHPALSAFPSNIFYEGSLQNGVTAADRVKKGFDFQWPQPDKPMFFYVTQGQEEIASSGTSYLNRTEAANVEKITTKLLKAGAKPDQIGIITPYEGQRSYLVQYMQFSGSLHTKLYQEVEIASVDAFQGREKDFIILSCVRANEHQGIGFLNDPRRLNVALTRARYGVIIVGNPKALSKQPLWNHLLNYYKEQKVLVEGPLNNLRESLMQFSKPRKLVNTINPGARFMTTAMYDAREAIIPGSVYDRSSQGRPSSMYFQTHDQIGMISAGPSHVAAMNIPIPFNLVMPPMPPPGYFGQANGPAAGRGTPKGKTGRGGRQKNRFGLPGPSQTNLPNSQASQDVASQPFSQGALTQGYISMSQPSQMSQPGLSQPELSQDSYLGDEFKSQIDVALSQDSTYQGERAYQHGGVTGLSQY
With B1 the binding [8] was “binds”.

B2: UPF3B (protein, UniProt Q9BZI7 1-483)
chain: MKEEKEHRPKEKRVTLLTPAGATGSGGGTSGDSSKGEDKQDRNKEKKEALSKVVIRRLPPTLTKEQLQEHLQPMPEHDYFEFFSNDTSLYPHMYARAYINFKNQEDIILFRDRFDGYVFLDNKGQEYPAIVEFAPFQKAAKKKTKKRDTKVGTIDDDPEYRKFLESYATDNEKMTSTPETLLEEIEAKNRELIAKKTTPLLSFLKNKQRMREEKREERRRREIERKRQREEERRKWKEEEKRKRKDIEKLKKIDRIPERDKLKDEPKIKVHRFLLQAVNQKNLLKKPEKGDEKELDKREKAKKLDKENLSDERASGQSCTLPKRSDSELKDEKPKRPEDESGRDYREREREYERDQERILRERERLKRQEEERRRQKERYEKEKTFKRKEEEMKKEKDTLRDKGKKAESTESIGSSEKTEKKEEVVKRDRIRNKDRPAMQLYQPGARSRNRLCPPDDSTKSGDSAAERKQESGISHRKEGGEE
With B2 the binding [9] was “binds” and the binding [8] was “binds”.
